The target of this test is T1, BRD-1::tag (C. elegans) (UniProt Q21209).
T1 sequence: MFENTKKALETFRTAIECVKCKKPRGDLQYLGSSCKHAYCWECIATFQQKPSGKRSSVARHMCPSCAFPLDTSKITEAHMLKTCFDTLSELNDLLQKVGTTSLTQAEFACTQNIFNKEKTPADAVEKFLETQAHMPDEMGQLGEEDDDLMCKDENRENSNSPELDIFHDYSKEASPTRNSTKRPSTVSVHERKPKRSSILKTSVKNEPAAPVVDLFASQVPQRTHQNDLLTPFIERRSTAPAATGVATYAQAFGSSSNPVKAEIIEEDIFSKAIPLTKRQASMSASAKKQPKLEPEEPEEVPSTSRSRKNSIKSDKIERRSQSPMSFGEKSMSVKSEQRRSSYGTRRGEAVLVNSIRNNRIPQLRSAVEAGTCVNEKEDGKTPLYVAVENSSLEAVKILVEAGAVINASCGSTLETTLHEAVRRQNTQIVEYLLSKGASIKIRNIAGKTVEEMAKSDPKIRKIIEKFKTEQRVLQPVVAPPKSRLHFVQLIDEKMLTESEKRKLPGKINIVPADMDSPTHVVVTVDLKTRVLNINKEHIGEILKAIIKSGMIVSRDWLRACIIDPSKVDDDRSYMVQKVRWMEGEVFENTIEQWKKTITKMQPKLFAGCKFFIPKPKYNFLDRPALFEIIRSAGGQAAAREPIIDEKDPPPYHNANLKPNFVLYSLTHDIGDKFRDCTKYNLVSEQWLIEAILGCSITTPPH
The test can be described thus: co-IP; tandem immunoaffinity purification of the native CeBCD complex from dwIs3 worms (HA then Myc antibody columns, TEV elution), Western blot; soluble (S) and chromatin-bound (C) fractions, untreated and 12 h after 75 Gy IR; mock purification as control. For orientation: In western blotting, separated proteins are transferred to a membrane and probed.

Sequences of proteins named here, by UniProt entry; tags and fusion partners are left off. A change or cut given only in a name is not applied to a line headed by its entry.
UniProt Q7JKT6: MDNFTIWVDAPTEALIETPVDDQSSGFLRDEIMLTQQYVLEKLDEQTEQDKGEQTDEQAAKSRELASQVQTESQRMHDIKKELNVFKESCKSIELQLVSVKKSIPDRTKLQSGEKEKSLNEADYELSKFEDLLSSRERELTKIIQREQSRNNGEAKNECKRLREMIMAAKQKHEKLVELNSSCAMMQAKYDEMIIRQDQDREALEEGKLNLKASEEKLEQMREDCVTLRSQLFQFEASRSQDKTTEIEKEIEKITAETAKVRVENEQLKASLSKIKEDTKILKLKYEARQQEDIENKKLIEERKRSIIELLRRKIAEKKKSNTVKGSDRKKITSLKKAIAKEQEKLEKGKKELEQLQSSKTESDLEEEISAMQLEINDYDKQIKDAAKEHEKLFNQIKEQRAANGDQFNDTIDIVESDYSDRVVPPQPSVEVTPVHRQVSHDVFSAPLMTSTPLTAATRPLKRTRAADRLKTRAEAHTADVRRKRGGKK
UniProt O76388: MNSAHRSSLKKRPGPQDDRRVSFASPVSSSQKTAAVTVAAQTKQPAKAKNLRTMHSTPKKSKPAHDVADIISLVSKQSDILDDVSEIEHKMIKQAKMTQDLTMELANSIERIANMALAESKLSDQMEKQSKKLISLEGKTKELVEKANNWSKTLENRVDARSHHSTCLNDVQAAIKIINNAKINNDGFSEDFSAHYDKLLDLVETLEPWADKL

Results are given in words; binding and its absence hold for the method and conditions named. In cells and extracts the contact can be indirect. A result given as binding can be weak or reduced; the word gives no strength. Sequences can lack the tags named with a protein.

From paper PMC6334227 come the findings set out here.

Turning to SYP-1 (from UniProt Q7JKT6), the binding result is “binds”.

In the case of SYP-2 (from UniProt O76388), the binding entry is listed as “binds”.
